At least one structure is not confirmed: it was looked up by name or label, or the drawing left a doubt.
Tested on: methicillin-resistant Staphylococcus aureus (ATCC 43300)
Test: Standard antibiotic sensitivity test using the Vitek-2 system
Type: cell-based
Details: strain ATCC 43300

Compound: C[C@@H](O)[C@H]1C(=O)N2C(C(=O)O)=C(SCCN=CN)C[C@H]12 [imipenem]
- antibiotic sensitivity of the MRSA strain: resistant

Reference: patent US20250367343A1, “CLINICAL DRESSING LOADED WITH COFFEE EXTRACT” (KING SAUD UNIVERSITY, priority 2024, published 2025)
